Among the data in PMC8482512 are binding values, retold here.

Amino acid sequences for entries named in this document (tags omitted). A change or cut given only in a name is not applied to a line headed by its entry.
UniProt Q04689: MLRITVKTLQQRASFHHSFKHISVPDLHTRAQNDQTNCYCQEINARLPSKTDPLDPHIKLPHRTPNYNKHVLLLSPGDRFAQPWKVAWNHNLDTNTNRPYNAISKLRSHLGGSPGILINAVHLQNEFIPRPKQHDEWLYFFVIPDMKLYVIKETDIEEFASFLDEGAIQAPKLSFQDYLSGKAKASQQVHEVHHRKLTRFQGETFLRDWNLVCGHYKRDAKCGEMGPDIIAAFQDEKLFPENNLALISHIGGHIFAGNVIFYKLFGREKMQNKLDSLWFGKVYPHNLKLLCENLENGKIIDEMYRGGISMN

No constants are given. Whether binding was seen depends on the method and setting. In cells and extracts the contact can be indirect. These calls come from enrichment with a bait or labelling near it, and not all partners need be listed.

The labels stand for the following.
B1: Mia40 (protein, UniProt P36046 32-403)
chain: MASSPQFGRNSNQEKTAGFIMGILSMAGALYFIAPNRKPLFASRKVESDKTAEEELSSGGEQSPENEDDNNSKSDENGDDNDSKNDETEAGPQLGGDKIGASKVAEDGELVVLAEEDNKSSEDKDTDESKVSTKDDEQSNEDNATANNQKDENISSENSEENTSDKTLDNNAGSSEKKDPEHSDDEKSQQGQSDDKTTTEDNNGEEESSKKTVSDSENSAKQSESSDEEKEELRKQEEKQMGPTEEEVQHEGAYNPDTGEINWDCPCLGGMAHGPCGEEFKSAFSCFVYSEAEPKGIDCVEKFQHMQDCFRKYPEHYAEQLKETSDDEEPQDKVKVNTIESAPNVSSAKENAAKKAEQSDVKKEPLNEESKP
B2: Tim17 (protein, UniProt P39515 1-158)
chain: MSADHSRDPCPIVILNDFGGAFAMGAIGGVVWHGIKGFRNSPLGERGSGAMSAIKARAPVLGGNFGVWGGLFSTFDCAVKAVRKREDPWNAIIAGFFTGGALAVRGGWRHTRNSSITCACLLGVIEGVGLMFQRYAAWQAKPMAPPLPEAPSSQPLQA
B3: Sod2 (enzyme, UniProt P00447 27-233)
chain: KVTLPDLKWDFGALEPYISGQINELHYTKHHQTYVNGFNTAVDQFQELSDLLAKEPSPANARKMIAIQQNIKFHGGGFTNHCLFWENLAPESQGGGEPPTGALAKAIDEQFGSLDELIKLTNTKLAGVQGSGWAFIVKNLSNGGKLDVVQTYNQDTVTGPLVPLVAIDAWEHAYYLQYQNKKADYFKAIWNVVNWKEASRRFDAGKI
B4: Tim23 (protein, UniProt P32897 1-222)
chain: MSWLFGDKTPTDDANAAVGGQDTTKPKELSLKQSLGFEPNINNIISGPGGMHVDTARLHPLAGLDKGVEYLDLEEEQLSSLEGSQGLIPSRGWTDDLCYGTGAVYLLGLGIGGFSGMMQGLQNIPPNSPGKLQLNTVLNHITKRGPFLGNNAGILALSYNIINSTIDALRGKHDTAGSIGAGALTGALFKSSKGLKPMGYSSAMVAAACAVWCSVKKRLLEK

This assay addresses Aim32 with a C-terminal FLAG tag (Aim32-FLAG) (S. cerevisiae) (UniProt Q04689). The experiment in a line: affinity purification with mass spectrometry; mitochondrial lysates of Δaim32 [pAIM32-FLAG] or Δaim32 + Vec purified with FLAG beads, washed, LC-MS/MS.
For the molecule B1, the binding result was “binds”.
Next, B2: “binds”; B3: “binds”.
In the case of B4, the binding entry was “binds”.
